This is one part of the list.
molecular target: OsWRKY34 (Oryza sativa, UniProt Q0JBA9 1-250); assay: protein-binding microarray (RPBM); PBS, 2% BSA, 51.3 ng/ul salmon testes DNA, 50 uM zinc acetate, 200 nM TF, 25 C, 1 h; high values mean tight binding; details: protein: recombinant; tags: N-terminal polyhistidine and DsRed monomer fusion (pET32a); label: CyDye5-dUTP incorporated in the synthesized complementary strand; 3' TTTTT single-stranded linker to array surface; dsDNA, one strand shown
Summary of the method: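 A custom Agilent array was converted to double-stranded form by primer extension with Cy5-dUTP and blocked with 2% BSA. Protein at 200 nM in PBS with 2% BSA, salmon testes DNA and 50 µM zinc acetate was applied for 1 h at 25 °C, followed by washing. The proteins were polyhistidine–DsRed N-terminal fusions of transcription factors, expressed in E. coli BL21-CodonPlus and Ni–NTA-purified. The binding signal is per-feature fluorescence intensity (arbitrary units) from an Axon 4000B scanner.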

Sequences of proteins named here, by UniProt entry; tags and fusion partners are left off.
UniProt Q0JBA9, entry or part of it: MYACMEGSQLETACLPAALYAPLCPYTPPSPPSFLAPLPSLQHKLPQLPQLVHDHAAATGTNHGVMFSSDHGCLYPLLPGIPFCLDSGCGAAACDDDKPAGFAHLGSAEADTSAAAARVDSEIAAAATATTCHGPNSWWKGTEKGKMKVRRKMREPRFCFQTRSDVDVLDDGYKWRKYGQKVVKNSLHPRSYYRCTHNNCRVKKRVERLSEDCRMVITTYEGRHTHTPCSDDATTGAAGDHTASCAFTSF

Sequence | binding signal
GTTACCGAAGTTTTACTTTATACCATATGTACTCTATCTACGGAGTCACCTAGTGCAG | 8060 fluorescence intensity (a.u.)
CCTCCTCCACACATCCCTAACCCACCACATCCAAACCCCTCGGAGTCACCTAGTGCAG | 8730 fluorescence intensity (a.u.)
CCCCGCAGTTCTATTTTGATACGAGCGGCTATGCTTTTACCGGAGTCACCTAGTGCAG | 8270 fluorescence intensity (a.u.)
CTTGCTTCTCGCTTGGCGTTCATGGTGTCGTGCAAACCCTCGGAGTCACCTAGTGCAG | 10100 fluorescence intensity (a.u.)
CCGAGGTCGTAGGTTTTTCTTGCTTCTTCTTCTTCTTCTTCGGAGTCACCTAGTGCAG | 10600 fluorescence intensity (a.u.)
CGATCGTACTTTCTGGTGTACATAGTATCTGCACTTTTTCCGGAGTCACCTAGTGCAG | 10200 fluorescence intensity (a.u.)
AGTATTTTTGGTTCTTTCACAAACAGTACTTTTAAATTCACGGAGTCACCTAGTGCAG | 8090 fluorescence intensity (a.u.)
TATCTATCTAGCTCGATCCATCACTCCATCACTCATCAAGCGGAGTCACCTAGTGCAG | 9680 fluorescence intensity (a.u.)
TCCCTCCGTCCGTACTGCACTCTCGCTCGTTCCCCTCGCACGGAGTCACCTAGTGCAG | 11500 fluorescence intensity (a.u.)
CTCTCTCCGATCCGGATCTTCCTACCCACTCCGGCGAGCCCGGAGTCACCTAGTGCAG | 12900 fluorescence intensity (a.u.)
TCTTTTGGTCTTCTGCTCTTGTGCAGTTTCCACGCGCACCCGGAGTCACCTAGTGCAG | 9360 fluorescence intensity (a.u.)
ACTTTATATTGGCCCACATTATATTTTTAAAATTTTGAGACGGAGTCACCTAGTGCAG | 8720 fluorescence intensity (a.u.)
CTCTCCGTTTGTCATGAATAATTGGTCTTGTTTTTCTAACCGGAGTCACCTAGTGCAG | 12600 fluorescence intensity (a.u.)
GTTCTCACACTTCAGATTGTTATGTTTGGCTATGCTGTCTCGGAGTCACCTAGTGCAG | 9600 fluorescence intensity (a.u.)
AGTACTAGGGTGGTGTTATTTTCTCATGAAGATGAAGATTCGGAGTCACCTAGTGCAG | 11700 fluorescence intensity (a.u.)
CATCTTCCAGGACGTCACCTTCACTTCGCTTCGCCTCTGCCGGAGTCACCTAGTGCAG | 8520 fluorescence intensity (a.u.)
TCTTTCTCTACACCCACCCATAGACCACATCGCCCTTGATCGGAGTCACCTAGTGCAG | 11500 fluorescence intensity (a.u.)
TGCCAAAGCTCTATCCATTTTGCCTCTACTCAATCGTCCACGGAGTCACCTAGTGCAG | 10200 fluorescence intensity (a.u.)
GACATAGAACCCAACTTTCCATTCTTTTGATTGTTTTTGGCGGAGTCACCTAGTGCAG | 8390 fluorescence intensity (a.u.)
CTAGTAATTTGGTGTGGGATTTGTTGTTTACTTGTTTTCACGGAGTCACCTAGTGCAG | 9290 fluorescence intensity (a.u.)
GTCACCTCTCCTTCATCCGGATAAGCTCAAGATCTCTTTCCGGAGTCACCTAGTGCAG | 8170 fluorescence intensity (a.u.)

Sequence | binding signal
GTGGGTTCGTGTGCTCTCTCGCTCCTGCCATTGGTTGATGCGGAGTCACCTAGTGCAG | 8580 fluorescence intensity (a.u.)
TCACAGCGGACCTGCTTCTTCGATTTGCTCATGGAGAATGCGGAGTCACCTAGTGCAG | 8280 fluorescence intensity (a.u.)
CTTTACAATATTTATCATTCGTTCTACTCTTCAATTATTTCGGAGTCACCTAGTGCAG | 8090 fluorescence intensity (a.u.)
CAATCGCTGTCATCTCATCTCCCAACCTTTTTTTTCTTACCGGAGTCACCTAGTGCAG | 9710 fluorescence intensity (a.u.)
CGTGAGGACTCGTATATCTTCTTCCTGCTATAACATCTCACGGAGTCACCTAGTGCAG | 8660 fluorescence intensity (a.u.)
GTCCATCCCTATCTCACTCGGTCGGTGCTAGTACTGCTTCCGGAGTCACCTAGTGCAG | 9500 fluorescence intensity (a.u.)
CTGCCGCTTTATCTCTGCCCTTCGTCTGACATCTACGCGTCGGAGTCACCTAGTGCAG | 8260 fluorescence intensity (a.u.)
GCTAAGATTTTCGCATGTGGCCAGTAGCCCAGTACTAAACCGGAGTCACCTAGTGCAG | 8590 fluorescence intensity (a.u.)
GGTTTGACCGCGCGTCGCATCCCGTCATCCCCGTGCGTCGCGGAGTCACCTAGTGCAG | 8860 fluorescence intensity (a.u.)
GCGGCACACCCAAATGCACCACGTGGACGGACATTTAGCACGGAGTCACCTAGTGCAG | 8590 fluorescence intensity (a.u.)
GAACACGGCACCATCACCGTCACTCTTCCCGCTTCACAGTCGGAGTCACCTAGTGCAG | 9700 fluorescence intensity (a.u.)
ATGACCACCGTGCATGCCCTTATAGTCTCAATTTACTTATCGGAGTCACCTAGTGCAG | 8180 fluorescence intensity (a.u.)
ACTCACTTGTCGACAGAATCATTGATTTTTCCTTTTATGACGGAGTCACCTAGTGCAG | 8200 fluorescence intensity (a.u.)
TTTCTTGTATTGGTGGCATCCAGCTTCTTCGTCTGTCTCTCGGAGTCACCTAGTGCAG | 11500 fluorescence intensity (a.u.)
ATTCGGCGCCCCTACTCTTCCTCTCCGGCGAGCTTTTTCACGGAGTCACCTAGTGCAG | 9710 fluorescence intensity (a.u.)
GGGTGGAATTTCTCGAACCCATGTACGCGTTTGACTTGATCGGAGTCACCTAGTGCAG | 9450 fluorescence intensity (a.u.)
TTTTATAGTTTGTGTGTGATTGAGCCTGTAACTTTTTCATCGGAGTCACCTAGTGCAG | 10000 fluorescence intensity (a.u.)
CTGCGACAACCGCTGCTCCGGCACCTACTGCTCCTGAGAACGGAGTCACCTAGTGCAG | 8050 fluorescence intensity (a.u.)
TAACCTAACTGTTCTCGTCCATATCTAACGACGGCCGCCTCGGAGTCACCTAGTGCAG | 8140 fluorescence intensity (a.u.)
TGAGTTTTTGTTTGTATTGTTTGACTACTCGTCTTATTCACGGAGTCACCTAGTGCAG | 10400 fluorescence intensity (a.u.)
TGTGGGCATGTGTGTTTTTCTTGCTTATTGGATTGCCGCACGGAGTCACCTAGTGCAG | 8490 fluorescence intensity (a.u.)

Sequence | binding signal
CGCATCTCCAATTCAGTTTTTCTTTTTCCCTTTCGCATCTCGGAGTCACCTAGTGCAG | 11900 fluorescence intensity (a.u.)
GCGCCTTTTTCCATCCATCTACGGCTACTTTCCTGCACGACGGAGTCACCTAGTGCAG | 9910 fluorescence intensity (a.u.)
CTGCTGGCCTACTACTGTGTTGCTGCTTGTATCTTTTTTTCGGAGTCACCTAGTGCAG | 15500 fluorescence intensity (a.u.)
ATAATTTGATCGATACGCCCTGTACTTTTTTCTTCAATTGCGGAGTCACCTAGTGCAG | 8660 fluorescence intensity (a.u.)
TCGCTCTTCGATCTTCCGCCCAAGTTCTTCGCTCGCATCCCGGAGTCACCTAGTGCAG | 12000 fluorescence intensity (a.u.)
TTCCCCTAATGCTATGCTCCTTGTTCTTTCGTCATTAGATCGGAGTCACCTAGTGCAG | 11500 fluorescence intensity (a.u.)
TCCCCTATCCCATTAGCCAAACACTGCCTAACTGTTCACCCGGAGTCACCTAGTGCAG | 9310 fluorescence intensity (a.u.)
TGTTCATTAGTATCATTTACTCTCTGACTACTTTTTAGCTCGGAGTCACCTAGTGCAG | 9810 fluorescence intensity (a.u.)
GGTTGTAATCTATAGGGGTCCTTGTATAGAAATATCGTTTCGGAGTCACCTAGTGCAG | 8880 fluorescence intensity (a.u.)
TCTCACCCGTCCATCGACCACAATCCAGCGGTCAGAAACTCGGAGTCACCTAGTGCAG | 8920 fluorescence intensity (a.u.)
CGCCGCCGCCTAGCTTCTTCCCGTGCTCGCCCGTCGCCGACGGAGTCACCTAGTGCAG | 8840 fluorescence intensity (a.u.)
CCGTCCCGCAATAGTTATCGCTTTGGGTTTTTCCTTTCAACGGAGTCACCTAGTGCAG | 8190 fluorescence intensity (a.u.)
ATTATATTGTTGGTTTAACTCTCCACTGCTTTAAAAAGTACGGAGTCACCTAGTGCAG | 8310 fluorescence intensity (a.u.)
GGGAGGATTTTTACTGTCCTTGATAGTGGCCGGTACCAAACGGAGTCACCTAGTGCAG | 14100 fluorescence intensity (a.u.)
AAAACAATGGCAAAGTTTCTCTATCTGATCATCCTTTCATCGGAGTCACCTAGTGCAG | 9030 fluorescence intensity (a.u.)
ACGTACCAACCTCATGGGCTTAATCGGCCCATTACGCGCTCGGAGTCACCTAGTGCAG | 8290 fluorescence intensity (a.u.)
ATGTGGGTCAGGGTGGCATATCACAAATTTTGTAAAATTTCGGAGTCACCTAGTGCAG | 8770 fluorescence intensity (a.u.)
TAGATATCAAATGTTAGGCTTTGGGTTGAATTTTGTTTTACGGAGTCACCTAGTGCAG | 8150 fluorescence intensity (a.u.)
GTCCCCACTACTCCACCGCGCCTCTCGCTTCCTCCGTCCCCGGAGTCACCTAGTGCAG | 15000 fluorescence intensity (a.u.)
CCAAGTCCAGGAGATCTTTTCCCTGTTCTTTCGTCGTTGTCGGAGTCACCTAGTGCAG | 8680 fluorescence intensity (a.u.)
GTACTTATACTTGGACTCTCCTTTTCTTTTTTCTTTTTCTCGGAGTCACCTAGTGCAG | 12700 fluorescence intensity (a.u.)

Already shown: entries from further up.
Sequence | binding signal
CTGCTGGCCTACTACTGTGTTGCTGCTTGTATCTTTTTTTCGGAGTCACCTAGTGCAG | 15500 fluorescence intensity (a.u.)
ATAATTTGATCGATACGCCCTGTACTTTTTTCTTCAATTGCGGAGTCACCTAGTGCAG | 8660 fluorescence intensity (a.u.)

(continued)

Sequence | binding signal
CGGGGTCTGGGATCTGGGTTTCCATTGGGCCACGAGGCGCCGGAGTCACCTAGTGCAG | 9520 fluorescence intensity (a.u.)
ACCCTATGCTAGCATGCTACACCTTGTTTTTATCTCACTACGGAGTCACCTAGTGCAG | 13900 fluorescence intensity (a.u.)
TTTTTTGTGGTACCGGTTTTTTTTCCTGTGCTATGGATTGCGGAGTCACCTAGTGCAG | 10800 fluorescence intensity (a.u.)
CGAACAGACACGAGGGTTATCTTCCTTTTCTCTTCTTCTTCGGAGTCACCTAGTGCAG | 8480 fluorescence intensity (a.u.)
TTCCTTTATTTTTTTTTCTCAAACGCTCTTGACACTTGAGCGGAGTCACCTAGTGCAG | 9210 fluorescence intensity (a.u.)
AGTGTTTGTTCATTTTATAGCCATTTTTAACCTTTTTAAACGGAGTCACCTAGTGCAG | 11000 fluorescence intensity (a.u.)
GCGCGGGCGGGCTAAAATTAGCGGGAGAGGGAGGAGTTGACGGAGTCACCTAGTGCAG | 8280 fluorescence intensity (a.u.)
TCGCCATCTCCACCTCCTCCATTCCACCTCCACTCCCGCTCGGAGTCACCTAGTGCAG | 8730 fluorescence intensity (a.u.)
GCATCATTATTTAGTATTTTATGTCTTTTATCTGTACAATCGGAGTCACCTAGTGCAG | 15400 fluorescence intensity (a.u.)
GTCTCGTAATTTTCTGTTGAACTATGTAATTGATTTCTTTCGGAGTCACCTAGTGCAG | 9590 fluorescence intensity (a.u.)
CATCTCCACAGTACACGAGTGCTCATTGCCTTCCAAGCACCGGAGTCACCTAGTGCAG | 8390 fluorescence intensity (a.u.)
ACTTTTCTCCGTCATCGATCTCTCTTGCCTTAAATGGACGCGGAGTCACCTAGTGCAG | 8620 fluorescence intensity (a.u.)
TTGTGATTTGTGGGATTAGTATCTCTGTCGGTGTCATATCCGGAGTCACCTAGTGCAG | 9600 fluorescence intensity (a.u.)
CTTCTATCTGATCTACCAGCTGCTTGGTCCCTTGATGTGACGGAGTCACCTAGTGCAG | 9670 fluorescence intensity (a.u.)
GCCATTATCCTCTTCCTCTCTAATTATCTCCCTGCCCGAACGGAGTCACCTAGTGCAG | 9720 fluorescence intensity (a.u.)
TTCTTATTATTATTATTATTCATCTTGCATATGCACGCATCGGAGTCACCTAGTGCAG | 9400 fluorescence intensity (a.u.)
CTCTTTCTCTCTCTCTGTGAATGGTGTCGGTTCTCCTGGTCGGAGTCACCTAGTGCAG | 10900 fluorescence intensity (a.u.)
GGAGATCTTATACCCGATTTTACTGTTGAGGATTGTGACTCGGAGTCACCTAGTGCAG | 8640 fluorescence intensity (a.u.)
GATCCGCGGCGCGGGTGGGGTTGTGGGGCGGGCGGAGATGCGGAGTCACCTAGTGCAG | 19200 fluorescence intensity (a.u.)
TTCCACGATCCGCCAATCCGCTGCATTCACCCGTCACCACCGGAGTCACCTAGTGCAG | 11500 fluorescence intensity (a.u.)
CCTGATCTCTTCATGCATAGCTCTATTTAAAATTTTCTTTCGGAGTCACCTAGTGCAG | 10400 fluorescence intensity (a.u.)

Some of the entries so far, with tabs:
Sequence	binding signal
CATCTCCACAGTACACGAGTGCTCATTGCCTTCCAAGCACCGGAGTCACCTAGTGCAG	8390 fluorescence intensity (a.u.)
ACTTTTCTCCGTCATCGATCTCTCTTGCCTTAAATGGACGCGGAGTCACCTAGTGCAG	8620 fluorescence intensity (a.u.)
TTGTGATTTGTGGGATTAGTATCTCTGTCGGTGTCATATCCGGAGTCACCTAGTGCAG	9600 fluorescence intensity (a.u.)
CTTCTATCTGATCTACCAGCTGCTTGGTCCCTTGATGTGACGGAGTCACCTAGTGCAG	9670 fluorescence intensity (a.u.)

Source: paper PMC7819943, “Rice protein-binding microarrays: a tool to detect cis-acting elements near promoter regions in rice”
